Screening data, single-dose tests

Chains of the proteins cited; added tags and fusions are not shown.
UniProt P9WFT3, whole entry: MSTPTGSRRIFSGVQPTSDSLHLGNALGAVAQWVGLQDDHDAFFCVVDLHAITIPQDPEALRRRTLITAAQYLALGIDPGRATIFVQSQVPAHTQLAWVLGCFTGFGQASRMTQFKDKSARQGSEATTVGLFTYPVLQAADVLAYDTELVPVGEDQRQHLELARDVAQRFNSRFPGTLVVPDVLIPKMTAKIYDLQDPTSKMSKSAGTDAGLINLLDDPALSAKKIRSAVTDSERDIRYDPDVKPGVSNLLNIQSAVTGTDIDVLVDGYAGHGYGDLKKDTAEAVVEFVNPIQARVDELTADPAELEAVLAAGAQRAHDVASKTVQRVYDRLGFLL
UniProt I6X8D2, whole entry: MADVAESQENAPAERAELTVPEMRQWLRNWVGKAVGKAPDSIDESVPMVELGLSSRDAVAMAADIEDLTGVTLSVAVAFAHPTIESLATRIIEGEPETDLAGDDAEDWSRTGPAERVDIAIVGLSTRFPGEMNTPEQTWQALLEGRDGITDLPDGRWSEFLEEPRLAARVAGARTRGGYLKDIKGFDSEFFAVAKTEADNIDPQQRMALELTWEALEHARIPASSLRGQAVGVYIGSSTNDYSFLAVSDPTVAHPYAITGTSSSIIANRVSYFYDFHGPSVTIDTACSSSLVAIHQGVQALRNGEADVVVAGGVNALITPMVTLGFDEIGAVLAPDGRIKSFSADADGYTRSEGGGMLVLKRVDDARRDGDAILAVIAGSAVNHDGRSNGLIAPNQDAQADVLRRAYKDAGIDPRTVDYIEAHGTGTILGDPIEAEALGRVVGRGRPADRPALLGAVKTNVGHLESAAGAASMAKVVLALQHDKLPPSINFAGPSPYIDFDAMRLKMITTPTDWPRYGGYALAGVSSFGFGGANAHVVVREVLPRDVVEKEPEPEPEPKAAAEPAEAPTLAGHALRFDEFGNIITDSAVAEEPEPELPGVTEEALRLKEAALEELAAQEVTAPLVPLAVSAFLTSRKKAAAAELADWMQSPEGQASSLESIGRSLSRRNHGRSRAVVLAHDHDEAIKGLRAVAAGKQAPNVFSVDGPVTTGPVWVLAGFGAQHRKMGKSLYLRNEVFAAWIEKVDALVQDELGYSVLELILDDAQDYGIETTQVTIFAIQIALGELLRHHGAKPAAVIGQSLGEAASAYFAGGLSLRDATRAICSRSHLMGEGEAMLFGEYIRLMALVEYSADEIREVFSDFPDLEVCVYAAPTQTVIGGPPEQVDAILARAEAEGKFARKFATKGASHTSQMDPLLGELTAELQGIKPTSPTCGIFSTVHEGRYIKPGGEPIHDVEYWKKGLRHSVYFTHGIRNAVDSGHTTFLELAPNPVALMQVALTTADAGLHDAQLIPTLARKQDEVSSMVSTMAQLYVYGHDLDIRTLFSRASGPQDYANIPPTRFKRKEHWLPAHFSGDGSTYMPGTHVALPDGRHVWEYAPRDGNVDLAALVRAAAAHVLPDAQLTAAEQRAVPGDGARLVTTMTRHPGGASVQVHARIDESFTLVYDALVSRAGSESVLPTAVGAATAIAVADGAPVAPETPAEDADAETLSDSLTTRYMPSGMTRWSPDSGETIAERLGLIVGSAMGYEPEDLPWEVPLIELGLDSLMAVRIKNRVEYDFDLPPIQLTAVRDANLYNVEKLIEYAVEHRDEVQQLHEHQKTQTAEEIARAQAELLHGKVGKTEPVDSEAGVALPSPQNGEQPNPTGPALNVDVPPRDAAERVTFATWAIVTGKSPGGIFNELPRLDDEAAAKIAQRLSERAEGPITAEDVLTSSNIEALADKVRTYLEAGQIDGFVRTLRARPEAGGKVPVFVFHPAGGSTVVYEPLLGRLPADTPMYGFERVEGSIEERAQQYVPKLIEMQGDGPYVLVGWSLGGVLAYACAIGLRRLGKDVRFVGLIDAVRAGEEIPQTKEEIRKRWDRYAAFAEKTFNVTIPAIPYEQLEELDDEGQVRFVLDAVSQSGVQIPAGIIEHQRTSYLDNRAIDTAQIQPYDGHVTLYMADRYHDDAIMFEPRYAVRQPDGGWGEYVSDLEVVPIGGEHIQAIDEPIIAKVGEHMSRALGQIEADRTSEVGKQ

MtTrpRS: 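Tryptophan-tRNA ligase, Mycobacterium tuberculosis (UniProt P9WFT3). Enzyme assay of tryptophanyl-tRNA synthetase; the read-out is not stated. Concentration: 10 µM. Higher most likely means stronger inhibition; the record gives no direction and few retests gave an IC50. About 65,000 compounds were tested under these conditions; 0.098% (about 64) showed 50% or more at least once.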
Pks13 thioesterase: 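Enzyme assay of the thioesterase domain of polyketide synthase 13; the read-out is not stated. Target: Polyketide synthase Pks13, Mycobacterium tuberculosis (UniProt I6X8D2). Tested at 30 µM. Higher reads as stronger inhibition (inferred from which compounds were picked for retests). Size under these conditions: about 67,000 compounds, about 300 of them at 50% or above in at least one test.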

The filed quantity is “Percent Effect” (%). The controls that fix the scale are not given in the record; negative values are as filed. This is an unselected part of the compounds tested. A dash means the value is not listed here; it may have been measured.

SMILES | MtTrpRS | Pks13 thioesterase
COc1ccc(CC2(CO)CCN(c3cc(C#N)ccn3)CC2)cc1 | 0.2138 | 8.945
CCc1nc2ccccc2n1C(CC)C(=O)N(C)CCc1noc(C)n1 (centres undefined) | -1.485 | 0.5483
Cc1cnccc1N1CCN(c2nccc(CCC(F)(F)F)n2)CC1 | -1.143 | -44.33
COc1ccccc1NCC(=O)NCc1ccc(-c2ccn[nH]2)cc1 | -0.6192 | -41.86
Cc1ccc(NS(=O)(=O)CC2=NC(=O)n3cccc3C2=O)cc1 | 1.005 | -42.47
O=C(NCc1ccncc1)N(Cc1ccc(F)cc1F)C1CC1 | 0.5482 | 5.967
COc1ccc(C(CO)NC(=O)Nc2cccc(F)c2)cc1 (centres undefined) | 1.644 | -25.16
CCOC(=O)C1CCN(Cc2csc(C(C)(C)C)n2)CC1 | -1.023 | -27.28
Cc1cc(C)c2ncn(CC(C)(C)CO)c(=O)c2c1 | 3.096 | -16.37
O=C(Cn1ccc(=O)[nH]c1=O)NCC1Cc2ccccc2O1 (centres undefined) | -0.4776 | -7.443
CCSc1ncc(-c2cc(C3CC3)nc(N)c2C#N)cn1 | 1.161 | 21.64
CN(C)C(=O)CN1CCC2(COCc3cnc(N4CCOCC4)nc32)C1 (centres undefined) | 2.033 | -16.42
CN(Cc1ccco1)C(=O)CN1CCCC1c1cccs1 (centres undefined) | -2.312 | -4.781
CCOCCCNC(=O)CN(c1cc(C)cc(C)c1)S(C)(=O)=O | -2.852 | -3.445
CCN(CC(=O)Nc1cc(Cl)ccc1C)C(=O)c1cnccn1 | 0.5913 | -7.94
CSCC(=O)N1CCCC(c2cc(C)[nH]n2)C1 (centres undefined) | 0.387 | -12.54
COCCNC(=O)[C@@H]1CCO[C@@H]2CCN(Cc3cnn(C)c3)C[C@@H]21 | -1.521 | 6.895
c1cnc(N2C[C@@H]3COC[C@]3(COCC3CCCC3)C2)nc1 | -8.599 | -10.73
CCN(C)Cc1cccc(CNC(=O)CSCc2ccccn2)c1 | 3.179 | -4.142
CCc1csc(C2CCCN(C(=O)c3c[nH]c(C)n3)C2)n1 (centres undefined) | 2.638 | -12.01
CN(C)C(=O)c1cccc(CN2CCN(CC(O)C(C)(C)C)CC2)c1 (centres undefined) | -3.129 | -2.736
CC1CCN(C(=O)C(C)n2cc(Br)cn2)CC1 (centres undefined) | 4.275 | -5.137
CCN(CC)CCn1cc(NC(=O)c2ccccc2OC)cn1 | -6.311 | -21.8
CC(=O)N(C)Cc1cccc(NC(=O)N(C)Cc2nccs2)c1 | -5.02 | -16.4
COc1ccc(C2CCCN2C(=O)NCCNc2ncccn2)cc1 (centres undefined) | 0.2138 | -5.52
CCCC(=O)N1CCN(CCN(C)C)c2nc(C)ccc2C1 | -3.715 | 4.151
CNC(=O)c1ccc(C2CN(C(=O)c3coc(C)n3)CCO2)nc1 (centres undefined) | - | 4.901
Cc1nccc(CNC(=O)N2CCN(Cc3ccccc3)C[C@H]2C)n1 | -2.182 | -29.18
Cc1ccc(C(=O)NCCCN(C(C)C)S(C)(=O)=O)c(=O)[nH]1 | -2.624 | -18.19
O=C([C@H]1CCCO1)N1CCC2(CC1)CNCc1ccccc12 | 2.265 | 4.976
Cc1ccccc1NC(=O)N1CCN(Cc2noc(C3CC3)n2)CC1 | 1.15 | -27.61
CN(Cc1cccc(C#N)c1)C(=O)C1CC(c2cccc(F)c2)=NO1 (centres undefined) | 2.091 | -48.94
c1ccc2c(NCC3(N4CCOCC4)CCSC3)ncnc2c1 (centres undefined) | 0.2337 | 11.95
O=C(c1ccnnc1)N1C[C@@H]2OCCN(CCN3CCCC3)[C@@H]2C1 | 3.051 | -10.92
CCOc1ccccc1OC1CCN(C(=O)c2nc(=O)[nH][nH]2)CC1 | -1.887 | -5.976
Cc1ccc(=O)n(CC2(O)CCN(Cc3cnc(N(C)C)nc3)CC2)n1 | - | -17.77
CSCCCN1CC[C@@]2(O)CCN(c3ncccn3)C[C@H]2C1 | 2.835 | -10.5
Cc1n[nH]c(C)c1C(N)C(=O)NCCc1csc(C(C)C)n1 (centres undefined) | -0.1792 | -18.99
CCc1cc(N2C[C@H](C3CC3)[C@@H](N)C2)nc(N2CCCC2)n1 | -2.282 | -4.634
O=C(c1ccc(F)cc1F)N1C[C@@H](O)[C@H](N2CCOCC2)C1 | -0.4167 | -1.492
Cc1cc(N(C)C)nc(C2(C)CCCNC2)n1 (centres undefined) | 7.405 | 2.584
CN(C)S(=O)(=O)N1CCC2(CCCN(Cc3ccc(F)cc3)C2=O)C1 (centres undefined) | 0.5757 | -8.906
CC(=O)NCc1cc2n(n1)CCN(Cc1cccc(CCN)c1)C2 | 2.447 | -10.94
Cc1ccc(C(=O)N2CCN(CCc3cccs3)CC2)c(=O)[nH]1 | 0.8166 | 0.1445
CC(C)c1cc(C(=O)N(Cc2ccncc2)CC2CCCO2)no1 (centres undefined) | 0.08223 | -0.09496
COc1ccccc1CNC(C)c1cnc2cc(C)nn2c1C (centres undefined) | -7.853 | -36.75
Cc1ccc([C@@]2(O)CC[C@@H]3CN(S(=O)(=O)C(C)C)C[C@@H]32)cc1 | -5.159 | -2.227
COc1ccc(CN2CCCCC2Cn2nc(C)nc2C)cc1F (centres undefined) | 0.05679 | -18.11
Cc1ccsc1C(=O)NC1CCS(=O)(=O)c2ccccc21 (centres undefined) | -1.826 | -7.643
O=C(Nc1cn[nH]c1)N(CCO)C1CCc2ccccc21 (centres undefined) | -4.414 | -32.49
O=C1Nc2ccccc2/C1=C1\CCCN1 | -2.654 | 11.39
c1cc(-c2nc3c(c(NCCc4c[nH]cn4)n2)CCNCC3)ccn1 | 3.483 | 1.812
CC(C)(C)CCNC(=O)c1ccc(Cl)c(NS(C)(=O)=O)c1 | 3.333 | -8.915
Cc1nccc(C(=O)N2CCCC(c3cc(C(F)(F)F)[nH]n3)C2)n1 (centres undefined) | -6.198 | -21.23
COc1ccc(S(=O)(=O)N2CCc3ccc(F)cc32)cc1C(=O)O | 1.132 | -8.806
OC(CNCCc1nnc2ccccn12)c1ccc(F)c(F)c1 (centres undefined) | 1.924 | -26.58
CC(C)(O)CCc1ccc(C(=O)NCCC2CCCOC2)cc1 (centres undefined) | 2.677 | -16.27
COc1ccc(CC(=O)N2CCN(Cc3ccco3)C[C@@H]2C)cc1OC | 4.948 | -0.3866
CN1C(=O)C2(CCCN(C(=O)c3ccc(=O)n(C)n3)C2)c2ccccc21 (centres undefined) | -1.089 | 21.39
COc1cc(C)ccc1OCCC(=O)N1CCCC1Cn1cccn1 (centres undefined) | 2.632 | -13.56
COCCNc1nc(C2CCCC2)nc2c1CCNCC2 | -0.0774 | -17.95
CCc1noc(C(C)N(C)CC(=O)Nc2ccc(Br)cc2C)n1 (centres undefined) | -0.6427 | -7.515
Cc1nc(-n2nc(-c3cccs3)cc2N)[nH]c(=O)c1C | -0.08937 | 0.6833
COc1nc(N2CCC(CC(N)=O)CC2)ncc1Br | 3.204 | -32.58
Nc1nc(CN2CCCC(Cn3cncn3)C2)nc2ccccc12 (centres undefined) | -0.8746 | -4.384
CN(c1c(F)cccc1F)S(=O)(=O)c1cc2c(c(C(=O)O)c1)OCCO2 | 4.371 | -9.298

Once more, the final 8:

{"smiles": "CN1C(=O)C2(CCCN(C(=O)c3ccc(=O)n(C)n3)C2)c2ccccc21", "stereo": "centres undefined", "MtTrpRS": -1.089, "Pks13 thioesterase": 21.39}
{"smiles": "COc1cc(C)ccc1OCCC(=O)N1CCCC1Cn1cccn1", "stereo": "centres undefined", "MtTrpRS": 2.632, "Pks13 thioesterase": -13.56}
{"smiles": "COCCNc1nc(C2CCCC2)nc2c1CCNCC2", "MtTrpRS": -0.0774, "Pks13 thioesterase": -17.95}
{"smiles": "CCc1noc(C(C)N(C)CC(=O)Nc2ccc(Br)cc2C)n1", "stereo": "centres undefined", "MtTrpRS": -0.6427, "Pks13 thioesterase": -7.515}
{"smiles": "Cc1nc(-n2nc(-c3cccs3)cc2N)[nH]c(=O)c1C", "MtTrpRS": -0.08937, "Pks13 thioesterase": 0.6833}
{"smiles": "COc1nc(N2CCC(CC(N)=O)CC2)ncc1Br", "MtTrpRS": 3.204, "Pks13 thioesterase": -32.58}
{"smiles": "Nc1nc(CN2CCCC(Cn3cncn3)C2)nc2ccccc12", "stereo": "centres undefined", "MtTrpRS": -0.8746, "Pks13 thioesterase": -4.384}
{"smiles": "CN(c1c(F)cccc1F)S(=O)(=O)c1cc2c(c(C(=O)O)c1)OCCO2", "MtTrpRS": 4.371, "Pks13 thioesterase": -9.298}

Measurements from “University of Dundee, Small-Polar-MMV Screening Library” (2021), ChEMBL document CHEMBL3988442.